{"source": "patent US6355409B1", "about": "“Tagatose as a cytoprotective supplement for the removal and/or storage of organs to reduce reperfusion injury” (Biospherics Incorporated, priority 2000, dated 2002)", "origin": "cited, not measured here", "tested_on": "liver", "settings": "added to the perfusate; cited from earlier work", "note": "At least one compound was matched to its structure with a doubt left."}
{"smiles": "CC(=O)N(O)CCCCCNC(=O)CCC(=O)N(O)CCCCCNC(=O)CCC(=O)N(O)CCCCCN", "note": "[deferoxamine]", "values": [{"measurement": "effect on reperfusion injury", "result": "beneficial effects on reperfusion injury"}]}
